T1: human leucine-rich alpha-2-glycoprotein-1 (LRG) (human, UniProt P02750 36-347, one galactosamine and four glucosamine oligosaccharides attached; two intrachain disulfide bonds)
T1 construct: Purified from human serum or plasma by adsorption on horse Cyt c-Affi-Gel 10; The leader is boxed in a drawing that is not readable; also called human LRG
T1 sequence: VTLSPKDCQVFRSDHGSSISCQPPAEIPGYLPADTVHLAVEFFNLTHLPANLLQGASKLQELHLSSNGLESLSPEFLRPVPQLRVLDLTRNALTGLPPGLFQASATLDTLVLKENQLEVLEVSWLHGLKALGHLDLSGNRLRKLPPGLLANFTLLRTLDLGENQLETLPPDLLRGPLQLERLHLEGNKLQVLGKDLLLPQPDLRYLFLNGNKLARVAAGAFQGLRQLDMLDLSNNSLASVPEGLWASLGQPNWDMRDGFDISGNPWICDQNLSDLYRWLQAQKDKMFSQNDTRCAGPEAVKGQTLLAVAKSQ

B1: human Cytochrome c (Cyt c) (other)
chain: GDVEKGKKIFIMKCSQCHTVEKGGKHKTGPNLHGLFGRKTGQAPGYSYTAANKNKGIIWGEDTLMEYLENPKKYIPGTKMIFVGIKKKEERADLIAYLKKATNE
modifications: acetylated amino terminal glycine; heme prosthetic group bound through cysteines at positions 14 and 17 of the mature protein (15 and 18 of SEQ ID NO: 4)
notes: Obtained from R & D Systems; The mature form lacks the leading methionine and has 104 residues; also called human Cyt c
B2: horse Cytochrome c (Cyt c) (other, UniProt P00004 2-105, looked up)
chain: GDVEKGKKIFVQKCAQCHTVEKGGKHKTGPNLHGLFGRKTGQAPGFTYTDANKNKGITWKEETLMEYLENPKKYIPGTKMIFAGIKKKTEREDLIAYLKKATNE
notes: Used coupled to Affi-Gel 10, adsorbed to microtiter plates, and in solution; also called horse Cyt c; Cyt c-Affi-Gel 10
B3: pigeon Cytochrome c (Cyt c) (other, UniProt P00021 2-105, looked up)
chain: GDIEKGKKIFVQKCSQCHTVEKGGKHKTGPNLHGLFGRKTGQAEGFSYTDANKNKGITWGEDTLMEYLENPKKYIPGTKMIFAGIKKKAERADLIAYLKQATAK
notes: also called a bird (pigeon) Cyt c

The binders below were run against T1, human leucine-rich … (assay: Competitive ELISA: solution Cyt c competes with plate-bound horse Cyt c for human LRG).
Protocol: Horse Cyt c was adsorbed to a microtiter plate and increasing concentrations of Cyt c from various species present in the solution phase were allowed to compete with the plate-bound Cyt c for human LRG binding. Otherwise, the assay was performed in accordance with the procedures described in Example 1.

Binding result, binds:
B1
B2
B3
